From paper PMC10949598

Chains of the proteins cited; added tags and fusions are not shown. Lines headed by an entry give the natural chain unless they say otherwise; changes in a name come on top.
UniProt A0PK00: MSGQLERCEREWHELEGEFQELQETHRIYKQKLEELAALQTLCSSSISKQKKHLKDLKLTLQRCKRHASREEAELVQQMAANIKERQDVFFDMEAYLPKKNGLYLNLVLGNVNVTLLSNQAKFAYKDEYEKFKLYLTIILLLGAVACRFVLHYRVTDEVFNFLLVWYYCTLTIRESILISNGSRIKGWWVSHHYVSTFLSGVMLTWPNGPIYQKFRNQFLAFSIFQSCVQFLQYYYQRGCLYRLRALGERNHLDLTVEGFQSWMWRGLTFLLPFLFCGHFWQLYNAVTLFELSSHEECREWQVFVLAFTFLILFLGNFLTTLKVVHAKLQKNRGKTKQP
UniProt P35579: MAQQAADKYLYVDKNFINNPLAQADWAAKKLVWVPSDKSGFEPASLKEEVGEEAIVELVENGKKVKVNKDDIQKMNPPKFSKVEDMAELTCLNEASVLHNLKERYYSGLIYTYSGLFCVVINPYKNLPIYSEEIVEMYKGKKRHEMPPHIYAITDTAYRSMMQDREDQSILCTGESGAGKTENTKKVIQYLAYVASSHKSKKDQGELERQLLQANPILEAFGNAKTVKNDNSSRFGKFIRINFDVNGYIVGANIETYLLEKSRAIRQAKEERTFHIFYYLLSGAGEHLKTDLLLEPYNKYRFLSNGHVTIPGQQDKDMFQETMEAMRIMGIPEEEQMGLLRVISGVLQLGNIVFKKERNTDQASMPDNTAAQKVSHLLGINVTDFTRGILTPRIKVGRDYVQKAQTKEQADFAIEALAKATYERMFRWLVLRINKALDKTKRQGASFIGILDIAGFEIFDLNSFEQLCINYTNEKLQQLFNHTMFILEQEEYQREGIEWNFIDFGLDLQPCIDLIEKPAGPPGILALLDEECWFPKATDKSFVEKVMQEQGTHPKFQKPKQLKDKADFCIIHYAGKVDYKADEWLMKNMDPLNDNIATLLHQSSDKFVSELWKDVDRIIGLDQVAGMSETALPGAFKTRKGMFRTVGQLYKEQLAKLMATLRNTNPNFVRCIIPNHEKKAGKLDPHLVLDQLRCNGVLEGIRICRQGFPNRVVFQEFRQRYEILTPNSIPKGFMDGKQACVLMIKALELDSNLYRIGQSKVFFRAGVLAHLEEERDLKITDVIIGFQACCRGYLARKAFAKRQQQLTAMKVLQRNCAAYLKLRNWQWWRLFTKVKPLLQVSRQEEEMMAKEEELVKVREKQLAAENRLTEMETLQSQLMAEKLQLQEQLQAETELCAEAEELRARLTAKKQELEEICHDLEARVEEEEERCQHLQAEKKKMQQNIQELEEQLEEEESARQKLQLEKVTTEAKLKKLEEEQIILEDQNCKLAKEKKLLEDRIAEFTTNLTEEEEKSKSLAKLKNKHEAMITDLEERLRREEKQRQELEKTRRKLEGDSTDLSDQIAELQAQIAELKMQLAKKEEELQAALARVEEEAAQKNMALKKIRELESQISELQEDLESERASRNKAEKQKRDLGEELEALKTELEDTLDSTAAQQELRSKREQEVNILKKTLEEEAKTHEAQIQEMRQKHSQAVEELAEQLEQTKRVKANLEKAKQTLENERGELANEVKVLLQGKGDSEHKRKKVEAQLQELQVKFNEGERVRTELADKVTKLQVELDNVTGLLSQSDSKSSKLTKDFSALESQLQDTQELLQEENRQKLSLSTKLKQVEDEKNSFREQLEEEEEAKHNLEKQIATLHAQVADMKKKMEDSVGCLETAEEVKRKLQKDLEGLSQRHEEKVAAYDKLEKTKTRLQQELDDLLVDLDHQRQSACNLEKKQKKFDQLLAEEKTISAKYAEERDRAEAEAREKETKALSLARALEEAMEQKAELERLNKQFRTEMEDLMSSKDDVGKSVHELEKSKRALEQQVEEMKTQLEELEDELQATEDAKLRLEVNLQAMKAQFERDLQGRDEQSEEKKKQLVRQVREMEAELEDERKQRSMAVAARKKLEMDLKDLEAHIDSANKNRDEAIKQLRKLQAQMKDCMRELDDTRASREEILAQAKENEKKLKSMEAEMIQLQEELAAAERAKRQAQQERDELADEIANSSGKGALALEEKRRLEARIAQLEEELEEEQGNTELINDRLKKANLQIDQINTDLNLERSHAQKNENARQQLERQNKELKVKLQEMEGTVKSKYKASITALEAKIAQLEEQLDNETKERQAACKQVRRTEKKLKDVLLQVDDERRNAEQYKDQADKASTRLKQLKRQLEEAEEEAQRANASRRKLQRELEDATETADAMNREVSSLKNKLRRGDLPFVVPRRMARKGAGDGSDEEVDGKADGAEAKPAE

Biological target: TMEM120B protein coupled to a GST label (human) (UniProt A0PK00)
Assay: pull-down; GST-TMEM120B on glutathione sepharose magnetic beads, incubated overnight at 4 °C with SK-BR-3 lysate transfected with Myc-MYH9; western blotting and Coomassie staining; only the target purified

In the case of Myc-MYH9 (from UniProt P35579 1-1960), the binding was “binds”.

These are yes or no findings as the source states them, for the method shown. Binding seen in cells or lysates may run through a third protein. Binding can be weak; no strength is given.
